Among the data in PubChem BioAssay AID2685 (National Center for Advancing Translational Sciences (NCATS), 2010) are cell number change and AC50 values, retold here.

This assay can be described thus: qHTS Assay for Lipid Storage Modulators in Drosophila S3 Cells.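 For cell number change: cells counted by Cell Tracker Red CMTPX staining in the red channel.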 Conditions: BODIPY lipid droplet fluorescence, 18-24 h; for cell number change: measured here: cell count max response, cells fed with added oleic acid. The method in brief:
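Laser-scanning cytometry quantifies lipid droplet accumulation (500–530 nm total intensity; droplet/cell object ratio) in oleic acid-fed (400 uM added) Drosophila S3 cells treated with a concentration series. 20 uM Triacsin C defined 100% inhibition.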

[1] abbreviates: measured here: cell number channel AC50, cells fed with added oleic acid.
Setting [2] is: measured here: lipid fluorescence (Fed channel) AC50, cells fed with added oleic acid.

Some of the results follow. The main result of the screen is listed elsewhere. These columns were measured beside it and carry no call. Most of these compounds were active or inconclusive in the main read-out, so they are no random draw. Potencies come from curve fits of mixed quality, noted in brackets.

As to `COc1cccc2c1-c1c(O)cccc1C2=O`, the cell number change was determined as 19.9%.

In the case of `COc1cc(/C=N/NC(=O)c2nonc2N)cc(OC)c1OC`, the cell number change was found to be 15.4%. In addition, the AC50 under setting [1] is 1.84 µM [falling, partial curve, poor fit].

For `Cc1cc(-n2c(SCC(=O)Nc3ccc(F)c(F)c3)nc3n[nH]c(C)c3c2=N)ccc1Cl`, the cell number change is -14.3%. Also, the half-maximal activity concentration (AC50) under setting [2] is 29.1 µM [falling, single point].

As for `C[C@]1(OC(=O)/C=C/c2ccccc2)C[C@@H](O)[C@]2(O)C=CO[C@@H](O[C@@H]3O[C@H](CO)[C@@H](O)[C@H](O)[C@H]3O)[C@@H]21`, the cell number change was -6.67%. Also, the AC50 under setting [2] is 2.91 µM [falling, partial curve, poor fit].

For the molecule `COc1ccc(C(=O)OCC(=O)c2ccc[nH]2)cc1`, the cell number change turned out to be 6.37%. For the same molecule, the concentration at half-maximal activity (AC50) under setting [1] is 6.51 µM [falling, single point]. In addition, the half-maximal activity concentration (AC50) under setting [2] is 6.51 µM [falling, single point].

Take `O=C(COc1ccc(S(=O)(=O)N2CCCCC2)cc1)NCc1ccncc1`: the cell number change is 0.676%. In addition, the half-maximal activity concentration (AC50) under setting [2] was 16.4 µM [rising, single point].

On to `O=C(Nc1ccc(-c2n[nH]c(=S)o2)cc1)c1ccccc1`, for which the cell number change worked out at 45.8%.

For the molecule `COc1ccc(-c2nc(-c3cccc(C(F)(F)F)c3)no2)cc1OC`, the cell number change came to 68.2%. Besides, the half-maximal activity concentration (AC50) under setting [1] is 16.4 µM [rising, partial curve]. For the same molecule, the AC50 under setting [2] was 23.1 µM [rising, single point].

Regarding `Cc1ccc(S(=O)(=O)NCCC(=O)N2CCCCCCC2)cc1C`, the concentration at half-maximal activity (AC50) is 2.06 µM [falling, partial curve] under setting [1] and 1.3 µM [falling, full curve] under setting [2].

Consider `Clc1ccc(-c2nnsc2SCc2ccccc2)cc1`, for which the cell number change amounted to 47.8%. Further, under setting [1], the AC50 is 29.1 µM [rising, single point].

Take `Cc1ccccc1NC(=O)Cn1c(O)c(N=NC(=O)c2ccccc2O)c2ccccc21`: the cell number change is -0.576%.

Consider `Cc1ccc(-n2nc(C)c3c2NC2=C(C(=O)CC(C)(C)C2)C3c2ccccc2OCC(=O)O)cc1` (stereo not drawn), for which the AC50 under setting [2] is 0.0326 µM [rising, full curve, poor fit].

Regarding `Cc1nc2sccn2c(=O)c1S(=O)(=O)NCCc1ccccc1`, the cell number change was -3.46%.

Take `Cc1sc(NC(=O)c2ccco2)nc1-c1ccccc1`: the AC50 under setting [1] was 0.58 µM [rising, partial curve, poor fit] and the AC50 under setting [2] is 1.64 µM [rising, partial curve].

In the case of `O=P(OCC1CC1)(c1ccccc1)c1ccccc1`, the cell number change turned out to be 10.3%. Further, under setting [2], the AC50 is 0.517 µM [falling, single point].

For the molecule `O=[N+]([O-])c1cc(C(F)(F)F)cc([N+](=O)[O-])c1NN=C1CCCCC1`, the cell number change was -40.7%. Besides, the AC50 under setting [1] is 29.1 µM [falling, single point]. In addition, under setting [2], the concentration at half-maximal activity (AC50) was 20.6 µM [falling, single point].

`O=C(/C=C/c1ccccc1[N+](=O)[O-])N1CCN(c2ccccc2F)CC1`: the cell number change was -6.69%. Under setting [2], the AC50 was 0.326 µM [falling, full curve].

Regarding `CCC(CO)N=C1CC(C)(C)CC(=O)/C1=C(/O)CCCN1C(=O)c2ccccc2C1=O` (stereo not drawn), the cell number change was found to be 73.7%. Also, under setting [1], the concentration at half-maximal activity (AC50) was 29.1 µM [rising, single point]. Under setting [2], the AC50 is 29.1 µM [rising, partial curve].

On to `O=C(NCc1ccco1)/C(=C\c1cccs1)NC(=O)c1cccs1`, for which the cell number change was 39.5%. Under setting [1], the AC50 is 8.2 µM [rising, partial curve]. Also, the AC50 under setting [2] was 1.84 µM [rising, partial curve, poor fit].

Consider `CCn1c(SCC(=O)N(C)CC(=O)Nc2cccc(OC)c2)nnc1-c1ccco1`, for which the cell number change was 11.5%.

`C=CCn1c(CSCc2ccc(Cl)cc2Cl)nnc1SCC(=O)Nc1ccc(C(=O)O)cc1`: the cell number change was -19.1%. Under setting [1], the AC50 is 3.66 µM [falling, single point].

On to `COC(=O)Nc1ccc(S(=O)(=O)N2CCCC(C(=O)N3CCCCC3)C2)cc1` (stereo not drawn), for which the cell number change is 12%.

For `Cc1c(N=Cc2cccs2)c(=O)n(-c2ccccc2)n1C`, the cell number change was -13.4%.

In the case of `COc1ccc(CNC(=O)CCS(=O)(=O)c2ccc3c(c2)oc(=O)n3C)cc1`, the cell number change was -0.885%.

Regarding `Cc1ccc(S(=O)(=O)N(CC(=O)Nc2cccnc2)c2ccccc2C)cc1`, the cell number change is -20%. Further, under setting [2], the half-maximal activity concentration (AC50) is 0.206 µM [falling, single point].

With `COc1ccccc1CNC(=O)CCN1C(=O)COc2ccc(C)cc21`, the cell number change was found to be 48.4%. Moreover, the half-maximal activity concentration (AC50) under setting [1] was 29.1 µM [rising, single point]. The concentration at half-maximal activity (AC50) under setting [2] is 29.1 µM [rising, single point].

Take `O=C(NC1CC(=O)N(c2ccc(F)cc2)C1)C(=O)c1c[nH]c2ccccc12` (stereo not drawn): the cell number change is 35.2%. Also, under setting [1], the AC50 was 9.2 µM [rising, partial curve, poor fit]. The AC50 under setting [2] is 32.6 µM [rising, single point].

For `CCOC(=O)C1C(c2ccc(O)c(OCC)c2)NC(=S)NC1(O)C(F)(F)F` (stereo not drawn), the AC50 under setting [2] is 2.31 µM [rising, full curve].

As to `Cc1ccc(CNC(=O)C2CC(c3ccc(C(F)(F)F)cc3)=NO2)o1` (stereo not drawn), the cell number change was -4.58%. For the same molecule, the concentration at half-maximal activity (AC50) under setting [2] is 0.146 µM [falling, full curve, poor fit].

For `CN1CCN(S(=O)(=O)c2ccc(-c3ccc(Cl)cc3)cc2)CC1`, the cell number change is -19.8%.

On to `COc1cc(OC)cc(C(=O)NCC(=O)OCC(=O)/C=C2/N(C)c3ccccc3C2(C)C)c1`, for which the cell number change is -60%. Also, the AC50 under setting [1] was 29.1 µM [falling, single point]. Under setting [2], the AC50 is 29.1 µM [falling, partial curve, poor fit].

In the case of `Cc1ccc2nc(-c3ccc(NS(=O)(=O)c4ccc(F)cc4)cc3)sc2c1`, the cell number change is -64.7%. Under setting [1], the AC50 was 29.1 µM [falling, single point]. Under setting [2], the AC50 was 29.1 µM [falling, partial curve, poor fit].

Turning to `CCOc1cccc2c1OC1(C)CC2NC(=O)N1c1ccc(OC)cc1` (stereo not drawn), the cell number change is -112%. Moreover, the half-maximal activity concentration (AC50) under setting [1] was 23.1 µM [falling, partial curve]. In addition, under setting [2], the AC50 is 20.6 µM [falling, partial curve].

For the molecule `O=C1[C@H]2[C@@H](c3ccc(Cl)cc3)N3C(=O)N(c4cccc(F)c4)C(=O)[C@@]3(Cc3ccccc3)[C@H]2C(=O)N1C1CCCCC1`, the cell number change was determined as 1.06%. Further, the AC50 under setting [2] was 3.66 µM [rising, single point].

For the molecule `CNC(=S)Nc1ccc(Br)cc1`, the cell number change is -11.8%. Further, the AC50 under setting [2] is 0.651 µM [falling, full curve, poor fit].

In the case of `Cn1nc(C(F)(F)F)c(-c2cccc(C(F)(F)F)c2)c1NC(=O)c1cccnc1`, the cell number change was -19.3%.

In the case of `CC(=O)Nc1cc(C(=O)OCC(=O)c2ccccc2)ccc1C`, the cell number change was 20.8%. Under setting [2], the AC50 was 0.164 µM [rising, partial curve, poor fit].

Regarding `O=C(CCc1nc(-c2cccs2)no1)NCc1ccc(F)cc1Cl`, the cell number change was -22.9%. Moreover, under setting [1], the AC50 is 0.146 µM [falling, full curve]. Also, under setting [2], the AC50 was 0.731 µM [falling, full curve].

Take `N#CC[n+]1cc(-c2ccc(Cl)cc2)n2c1CCC2`: the cell number change was -29.2%. Also, the concentration at half-maximal activity (AC50) under setting [1] was 4.11 µM [falling, full curve, poor fit]. For the same molecule, the AC50 under setting [2] was 29.1 µM [falling, single point].

Take `CN(Cc1ccc(Cl)cc1)C(=O)CNC(=O)C12CC3CC(CC(C3)C1)C2`: the cell number change was -31.7%. Besides, the AC50 under setting [1] was 5.8 µM [falling, full curve, poor fit]. Under setting [2], the AC50 is 5.8 µM [falling, full curve].

For `O=C(COC(=O)CCSc1ccc(Cl)cc1)NCc1ccco1`, the cell number change was 30.8%. Besides, the half-maximal activity concentration (AC50) under setting [1] is 25.1 µM [rising, single point]. Besides, the AC50 under setting [2] is 22.4 µM [rising, partial curve, poor fit].

Regarding `Cc1ccc(S(=O)(=O)N2CCN(C(=O)C(C)Cn3cncn3)CC2)cc1C` (stereo not drawn), the cell number change stood at 3.97%. Under setting [2], the half-maximal activity concentration (AC50) is 29.1 µM [rising, single point].

Take `O=C(Nc1ccccc1)Nc1nnc(Cc2ccccc2F)s1`: the cell number change was -12.2%. In addition, the concentration at half-maximal activity (AC50) under setting [2] is 4.11 µM [falling, full curve, poor fit].

Consider `O=C(NCCCN1CCCC1=O)c1ccc(Cl)c(S(=O)(=O)N2CCCCC2)c1`, for which the cell number change is -20.3%. Further, the AC50 under setting [2] was 2.91 µM [rising, partial curve, poor fit].

Take `CCOC(=O)C1=C(Cc2ccc(OC)cc2)C(=O)c2ccccc2C1=O`: the cell number change was -99.3%. Besides, the AC50 under setting [1] was 4.11 µM [falling, partial curve]. For the same molecule, under setting [2], the concentration at half-maximal activity (AC50) is 11.6 µM [falling, single point].

In the case of `NC(=O)C(=O)NN=C1C2CC3CC(C2)CC1C3`, the cell number change is -17.3%. Further, under setting [2], the AC50 is 32.6 µM [falling, partial curve, poor fit].

With `Cc1nc(C(=O)N(C)C)nn1-c1cc(Cl)cc(Cl)c1`, under setting [2], the concentration at half-maximal activity (AC50) was 5.8 µM [rising, full curve, poor fit].

For the molecule `CC1=C(C(=O)N2CCOCC2)C(c2cc(C)ccc2C)NC(=S)N1` (stereo not drawn), the cell number change was 4.23%.

With `N=C1C(c2nc3ccccc3s2)=C(O)CN1Cc1ccco1`, the cell number change was -14.8%. In addition, the concentration at half-maximal activity (AC50) under setting [2] is 6.51 µM [rising, single point].

Take `O=C(Nc1cccnc1)c1ccc(Cl)c(S(=O)(=O)N2CCOCC2)c1`: the cell number change stood at 12.6%. Moreover, the concentration at half-maximal activity (AC50) under setting [2] was 29.1 µM [falling, single point].

Regarding `COCN(C#N)c1nc(OC)nc(OC)n1`, the cell number change was -14.2%.

On to `Cc1cc(OCC(=O)NNC(=S)NC(=O)c2cccs2)ccc1Cl`, for which the cell number change was -20.4%. Besides, the AC50 under setting [2] was 6.51 µM [rising, single point].

As for `Cc1ccc(S(=O)(=O)NCc2ccc3c(c2)cc(C)n3C)cc1`, the cell number change amounted to 33.1%. Also, under setting [1], the AC50 was 29.1 µM [rising, single point].

For `CCCc1n(CC(O)COCc2ccccc2)c2ccccc2[n+]1C` (stereo not drawn), the AC50 under setting [2] was 0.366 µM [falling, full curve].

Regarding `CC(C)c1ccc(-c2c(C#N)c(N)nc(SCC(=O)N3CCCCCC3)c2C#N)cc1`, the cell number change was -6.45%. Moreover, the half-maximal activity concentration (AC50) under setting [1] was 1.64 µM [rising, partial curve]. Also, the half-maximal activity concentration (AC50) under setting [2] is 5.17 µM [rising, partial curve].

Take `CN(C)c1nc(-c2ccccc2)c2cnn(Cc3ccccc3)c2n1`: the AC50 under setting [2] is 2.91 µM [rising, single point].

`Cc1cc(C)c(NC(=O)CCCN2CCOCC2)c(C)c1`: the cell number change came to 3.52%. Further, the concentration at half-maximal activity (AC50) under setting [2] was 32.6 µM [rising, single point].
